Details: phosphate-buffer 6 mM, pH 7,4, 37 °C

Nc1c2c(nc3ccccc13)CCCC2 [tacrine, 9-amino-1,2,3,4-tetrahydroacridine]
tacrine released from the fiber (after initial burst of about 6 - 12 h): 50%
Tacrine release rate from the cationic ion-exchange fiber (during the first 10 hours): about 375 g/h per cm^2
